PubChem BioAssay AID1508588 – Peter MacCallum Cancer Centre – 2020

- Aim: 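Genome-wide search for knock-downs that heighten vemurafenib action in melanoma cells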 (primary screen)
- Cells: human WM266.4 melanoma cells (BRAF V600 mutant)
- Reagent: siRNA pool against human genes, 40 nM
- Timing: 96 h from transfection to read-out
- Conditions: vemurafenib 300 nM (about IC25), added 48 h after transfection, for 48 h; comparison arm got DMSO vehicle only
- Read-out: 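Ratios to non-targeting siRNA for cell gain, counted as DAPI nuclei after minus before drug and averaged over two replicates, and for absorbance-read medium lactate per cell; both binned into fold-change classes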
- Direction: cell gain with vemurafenib: higher = more cell gain than with non-targeting siRNA; lactate per cell with vemurafenib: higher = more lactate made per cell
- Active means: 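a knock-down counts as enhancing when its fold-change classes with vehicle and with vemurafenib, taken together, show a stronger drug effect on cell gain or lactate per cell; exact class pairs not stated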
- Calls: active = enhances vemurafenib effect; inactive = no enhancement seen
In all, the deposit lists about 18,000 reagents; shown is an unselected part. 790 of all reagents (4.4%) were called active. 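Calls rest on a combination of fold-change classes in drug and vehicle arms, not all shown here.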 The numbers tell different reagents against one gene apart. No sequences are given here.

| gene symbol | reagent | cell gain with vemurafenib | lactate per cell with vemurafenib | outcome |
| --- | --- | --- | --- | --- |
| CNIH4 (GeneID 29097) | 1 | 0.42 | 1.68 | inactive |
| CCDC92 (GeneID 80212) | 1 | 0.62 | 0.88 | inactive |
| KIAA1958 (GeneID 158405) | 1 | 0.59 | 1.97 | inactive |
| SEC14L3 (GeneID 266629) | 1 | 0.79 | 1.34 | inactive |
| ELOB (GeneID 6923) | 1 | 0.19 | 2.69 | inactive |
| LARGE1 (GeneID 9215) | 1 | 0.45 | 0.64 | inactive |
| ZNF559 (GeneID 84527) | 1 | 0.6 | 1.09 | inactive |
| RMND5A (GeneID 64795) | 1 | 0.24 | 1.18 | inactive |
| UBL3 (GeneID 5412) | 1 | 0.68 | 0.63 | inactive |
| CBX7 (GeneID 23492) | 1 | 1.61 | 0.51 | inactive |
| HTR7 (GeneID 3363) | 1 | 0.95 | 0.32 | active |
| GEN1 (GeneID 348654) | 1 | 1.01 | 0.46 | inactive |
| RPP25L (GeneID 138716) | 1 | 0.27 | 2.24 | inactive |
| ARG1 (GeneID 383) | 1 | 0.87 | 1.49 | inactive |
| VAV3 (GeneID 10451) | 1 | 0.88 | 0.61 | inactive |
| ABHD8 (GeneID 79575) | 1 | 0.88 | 1.02 | inactive |
| PSMA2 (GeneID 5683) | 1 | -0.2 | 3.14 | inactive |
| KIAA1191 (GeneID 57179) | 1 | 1.32 | 0.61 | inactive |
| GSDMB (GeneID 55876) | 1 | 0.44 | 0.34 | active |
| TMEM182 (GeneID 130827) | 1 | 0.88 | 0.96 | inactive |
| GRIA2 (GeneID 2891) | 1 | 0.56 | 1.6 | inactive |
| ADORA3 (GeneID 140) | 1 | 0.64 | 1.33 | inactive |
| GMPR (GeneID 2766) | 1 | 0.71 | 1.35 | inactive |
| OR52E6 (GeneID 390078) | 1 | 0.55 | 0.29 | inactive |
| ZNF439 (GeneID 90594) | 1 | 0.31 | 0.42 | inactive |
| CIMIP1 (GeneID 128602) | 1 | 0.62 | 0.62 | inactive |
| PEDS1-UBE2V1 (GeneID 387522) | 1 | 0.67 | 1.3 | inactive |
| OR52L1 (GeneID 338751) | 1 | 0.28 | 2.42 | inactive |
| BATF3 (GeneID 55509) | 1 | 0.29 | 1.81 | inactive |
| CYP27B1 (GeneID 1594) | 1 | 1.4 | 0.57 | inactive |
| GNL1 (GeneID 2794) | 1 | 1.24 | 0.84 | inactive |
| EIF3H (GeneID 8667) | 1 | 0.45 | 0.56 | inactive |
| LACC1 (GeneID 144811) | 1 | 0.75 | 0.72 | inactive |
| FOXA3 (GeneID 3171) | 1 | 0.88 | 0.66 | inactive |
| NXPH1 (GeneID 30010) | 1 | 0.15 | 1.83 | inactive |
| VEZF1 (GeneID 7716) | 1 | 0.4 | 0.94 | inactive |
| ZNF467 (GeneID 168544) | 1 | 0.64 | 0.92 | inactive |
| ACSBG1 (GeneID 23205) | 1 | 0.79 | 1.08 | inactive |
| AP2B1 (GeneID 163) | 1 | 0.32 | 0.94 | inactive |
| OR51I1 (GeneID 390063) | 1 | 0.13 | 1.19 | inactive |
| TBC1D20 (GeneID 128637) | 1 | 0.29 | 1.4 | inactive |
| GPER1 (GeneID 2852) | 1 | 0.56 | 1.81 | inactive |
| ODAD3 (GeneID 115948) | 1 | 0.37 | 0.88 | inactive |
| FAM114A1 (GeneID 92689) | 1 | 0.92 | 0.45 | inactive |
| LPAR1 (GeneID 1902) | 1 | 1.42 | 0.99 | inactive |
| RRP1 (GeneID 8568) | 1 | 0.75 | 0.7 | active |
| IMPACT (GeneID 55364) | 1 | 0.42 | 0.68 | inactive |
| CNN3 (GeneID 1266) | 1 | 0.3 | 0.94 | inactive |
| ANXA10 (GeneID 11199) | 1 | 0.26 | 0.63 | inactive |
| ZNF233 (GeneID 353355) | 1 | 0.74 | 1.17 | inactive |
| TSPYL1 (GeneID 7259) | 1 | 0.89 | 0.78 | inactive |
| CERK (GeneID 64781) | 1 | 0.34 | 0.62 | inactive |
| DES (GeneID 1674) | 1 | 0.94 | 0.45 | active |
| ZDHHC12 (GeneID 84885) | 1 | 0.34 | 0.85 | inactive |
| ZNF223 (GeneID 7766) | 1 | 0.04 | 1.31 | inactive |
| GLI2 (GeneID 2736) | 1 | 1.12 | 0.56 | inactive |
| ITGA6 (GeneID 3655) | 1 | 0.69 | 1.21 | inactive |
| FAM9A (GeneID 171482) | 1 | 0.37 | 1.17 | inactive |
| TM2D1 (GeneID 83941) | 1 | 0.88 | 0.78 | inactive |
| SKIL (GeneID 6498) | 1 | 0.61 | 1.15 | inactive |
| LUC7L3 (GeneID 51747) | 1 | 0.28 | 1.1 | inactive |
| KIF15 (GeneID 56992) | 1 | 0.2 | 3.21 | inactive |
| CCL13 (GeneID 6357) | 1 | 0.64 | 0.54 | inactive |
| RMDN1 (GeneID 51115) | 1 | 0.57 | 0.14 | active |
| RS1 (GeneID 6247) | 1 | 0.71 | 0.72 | inactive |
| CSF1R (GeneID 1436) | 1 | 0.49 | 1.48 | inactive |

Laid out differently: entries from further up.
gene symbol | reagent | cell gain with vemurafenib | lactate per cell with vemurafenib | outcome
GSDMB (GeneID 55876) | 1 | 0.44 | 0.34 | active
TMEM182 (GeneID 130827) | 1 | 0.88 | 0.96 | inactive
GRIA2 (GeneID 2891) | 1 | 0.56 | 1.6 | inactive
ADORA3 (GeneID 140) | 1 | 0.64 | 1.33 | inactive
GMPR (GeneID 2766) | 1 | 0.71 | 1.35 | inactive
OR52E6 (GeneID 390078) | 1 | 0.55 | 0.29 | inactive
ZNF439 (GeneID 90594) | 1 | 0.31 | 0.42 | inactive
CIMIP1 (GeneID 128602) | 1 | 0.62 | 0.62 | inactive
PEDS1-UBE2V1 (GeneID 387522) | 1 | 0.67 | 1.3 | inactive
OR52L1 (GeneID 338751) | 1 | 0.28 | 2.42 | inactive
BATF3 (GeneID 55509) | 1 | 0.29 | 1.81 | inactive
CYP27B1 (GeneID 1594) | 1 | 1.4 | 0.57 | inactive
GNL1 (GeneID 2794) | 1 | 1.24 | 0.84 | inactive
EIF3H (GeneID 8667) | 1 | 0.45 | 0.56 | inactive
LACC1 (GeneID 144811) | 1 | 0.75 | 0.72 | inactive

Additional entries follow.
| gene symbol | reagent | cell gain with vemurafenib | lactate per cell with vemurafenib | outcome |
| --- | --- | --- | --- | --- |
| CSAG2 (GeneID 102723547) | 1 | 0.41 | 1.4 | inactive |
| CSAG2 (GeneID 102723547) | 2 | 0.25 | 0.52 | inactive |
| FKTN (GeneID 2218) | 1 | 0.58 | 0.7 | inactive |
| TMF1 (GeneID 7110) | 1 | 0.45 | 1.05 | inactive |
| HROB (GeneID 78995) | 1 | 0.28 | 1.41 | inactive |
| CCT4 (GeneID 10575) | 1 | 0.8 | 0.71 | inactive |
| ZNF304 (GeneID 57343) | 1 | 0.37 | 1.66 | inactive |
| CYTL1 (GeneID 54360) | 1 | 0.66 | 0.88 | inactive |
| RGL1 (GeneID 23179) | 1 | 0.66 | 0.52 | inactive |
| LCA5L (GeneID 150082) | 1 | 0.89 | 1.37 | inactive |
| RPS15A (GeneID 6210) | 1 | -0.02 | 1.04 | inactive |
| GLRX5 (GeneID 51218) | 1 | 0.42 | 1.23 | inactive |
| HS1BP3 (GeneID 64342) | 1 | 0.73 | 0.76 | inactive |
| MORC3 (GeneID 23515) | 1 | 0.66 | 1.68 | inactive |
| HSFX1 (GeneID 100506164) | 1 | 0.17 | 0.78 | inactive |
| RNASE13 (GeneID 440163) | 1 | 0.24 | 1.1 | inactive |
| FOS (GeneID 2353) | 1 | 0.39 | 0.9 | inactive |
| RXYLT1 (GeneID 10329) | 1 | 0.63 | 0.43 | inactive |
| PAFAH1B1 (GeneID 5048) | 1 | 0.61 | 0.67 | inactive |
| KDF1 (GeneID 126695) | 1 | 0.29 | 1.38 | inactive |
| CRACR2B (GeneID 283229) | 1 | 0.65 | 0.48 | inactive |
| UBE2D1 (GeneID 7321) | 1 | 0.4 | 1.16 | inactive |
| KIF25 (GeneID 3834) | 1 | 0.42 | 1.16 | inactive |
| CDK20 (GeneID 23552) | 1 | 0.72 | 0.66 | inactive |
| SZT2 (GeneID 23334) | 1 | 1.1 | 1.07 | inactive |
| SZT2 (GeneID 23334) | 2 | 0.13 | 0.54 | active |
| KRT6A (GeneID 3853) | 1 | 0.15 | 1.82 | inactive |
| EPS15 (GeneID 2060) | 1 | 0.57 | 1.36 | inactive |
| PLD2 (GeneID 5338) | 1 | 0.74 | 0.8 | inactive |
| CLPX (GeneID 10845) | 1 | 0.25 | 0.98 | inactive |
| LCE2C (GeneID 353140) | 1 | 0.77 | 0.73 | inactive |
| CALHM1 (GeneID 255022) | 1 | 0.49 | 1.3 | inactive |
| LHFPL4 (GeneID 375323) | 1 | 0.89 | 0.86 | inactive |
| IFNW1 (GeneID 3467) | 1 | 0.66 | 0.68 | inactive |
| SPRYD4 (GeneID 283377) | 1 | 0.55 | 0.99 | inactive |
| LCN2 (GeneID 3934) | 1 | 0.69 | 0.66 | inactive |
| KLHL3 (GeneID 26249) | 1 | 0.63 | 0.77 | inactive |
| ZNF257 (GeneID 113835) | 1 | 0.36 | 2.06 | inactive |
| PTK2B (GeneID 2185) | 1 | 0.31 | 1.07 | inactive |
| NSRP1 (GeneID 84081) | 1 | 0.12 | 0.98 | active |
| DCSTAMP (GeneID 81501) | 1 | 0.54 | 0.32 | inactive |
